Construct, isoform or probe ends are uncertain for at least one entry.
Target: CiaR, phosphorylated (UniProt A0A0H3MUU9)
Experiment: EMSA
Conditions: EMSA: Beyotime EMSA binding buffer, 20 min, room temperature, 4% native PAGE, proteins dialyzed in 25 mM Tris pH 7.4, 150 mM NaCl, 5% glycerol, 0.5 mM EDTA, 1 mM DTT, recombinant protein, residues 1-224, protein details: C-terminal 6xHis (from primer, pET-30a(+)), label: biotin 3' end

Row | Sequence | binding result (800 ng CiaR, probe letters rebuilt from the primers and the genome) | binding result (200-800 ng CiaR)
1 | AGGAATCAAGAAATTAAAGCTCAAATTTCAGGAGATAGTAGTTCTTCTAATCAATAAATATTGAGATTTCGATTTTTACTTATTCCATGATATAATGAACTCGTATCAATAAATAGTTAGATAAAGACTACCTTATCATTCATTTTTCAGATGGTCATAGTAGTACTTTATCTAACCATTTCTCTTAAAGACCGTGACCTGTCCCAGGTCTTTGGTTTGTTTATTAAACCGAAACGTAAGGAAGTGTATG (double strand) [ciaR promoter probe] | binds | 
2 | TTGACAATAGTTCTTAAGAGAACTATAATAGTTCTCATGGTAATTATTTTCGTAGAAAG (double strand) [satRAB promoter EMSA probe] |  | binds

From article PMC9241815, “Role of the Two-Component System CiaRH in the Regulation of Efflux Pump SatAB and Its Correlation with Fluoroquinolone Susceptibility”
